This experiment has as its system L1210 leukemia ip in BDF1 mice, survival T/C. Kind of experiment: NCI In Vivo Anticancer Drug Screen. Data for tumor model L1210 Leukemia (intraperitoneal) in B6D2F1 (BDF1) mice. To be noted: T/C endpoint: mean survival time, higher T/C = longer survival.
Setting [1] is: dose: 400.0 mg/kg/injection, schedule: Q01DX009 (ip), vehicle: Klucel (hydroxypropylcellulose) (HPC).
[2] abbreviates: dose: 200.0 mg/kg/injection, schedule: Q01DX009 (ip), vehicle: Klucel (hydroxypropylcellulose) (HPC).
The mark [3] stands for this setting: dose: 400.0 mg/kg/injection, schedule: Q04DX002 (ip), vehicle: Klucel (hydroxypropylcellulose) (HPC).

Molecules are shown by their SMILES. The list does not hold the whole screen: it is rich in T/C values a quarter to a half above the control, in often repeated tests (any T/C) and in doses without a T/C. Other doses and runs of a compound stand elsewhere. T/C: endpoint of the treated group in % of that of the vehicle group. Some doses have a count of surviving animals in place of a T/C: the source files T/C as zero there, which appears to mark a toxic dose or a test without result, not a measured value. Some survivor counts are full or nearly so, which does not show that the dose was tolerated: survival well below the control is almost never listed, so the zero probably covers shortened survival too. Counts of survivors are from the toxicity check (mostly the fifth day) where no day follows; animals may have died later. Schedule codes are those of the source, read here as Q, the interval in days (D) or hours (H), X, the number of doses. Some entries were tested several times; the results are listed from low to high. Some schedule codes hold Z or #, which are not explained here. Where survival is the endpoint, the PubChem record calls one and a half times the control and up active, and a quarter to a half above the control has no call in these data; cut-offs in other NCI protocols can differ.

With `NC(=S)NNc1ccccn1`, the survivor count by setting is: (dose: 25.0 mg/kg/injection, schedule: Q01DX009 (ip), vehicle: saline) 1 of 3; (dose: 50.0 mg/kg/injection, schedule: Q01DX009 (ip), vehicle: saline) 0 of 3; (dose: 200.0 mg/kg/injection, schedule: Q04DX002 (ip), vehicle: saline) 0 of 3; (dose: 400.0 mg/kg/injection, schedule: Q04DX002 (ip), vehicle: saline) 0 of 3.

As for `Cc1ccc(C(c2ccc(C)c(C)c2)C(O)C(O)C(O)C(O)CO)cc1C` (configuration not stated), the survivor count (dose: 400.0 mg/kg/injection, schedule: Q01DX001 (ip), vehicle: Klucel (hydroxypropylcellulose) (HPC)) was 6 of 6.

With `OCCCNc1nc2c(Cl)cc(Cl)cc2c2ccccc12`, under setting [1], the survivor count was 2 of 6.

Regarding `CN(Cc1ccc2nc(N)nc(N)c2c1)c1ccc(C(=O)NC(CCC(=O)O)C(=O)O)cc1` (configuration not stated), the T/C (dose: 0.25 mg/kg/injection, schedule: Q01DX009 (ip), vehicle: other) is 141 % of control; the T/C (dose: 4.4 mg/kg/injection, schedule: Q01DX001 (ip), vehicle: other) is 125 % of control; the T/C (dose: 10.0 mg/kg/injection, schedule: Q01DX001 (ip), vehicle: other) was 144 % of control; the T/C (dose: 10.0 mg/kg/injection, schedule: Q01DX001 (ip), vehicle: saline) is 125 % of control; the T/C (dose: 15.0 mg/kg/injection, schedule: Q01DX001 (ip), vehicle: saline) is 137 % of control; the T/C (dose: 20.0 mg/kg/injection, schedule: Q01DX001 (ip), vehicle: other) is 137 % of control. Besides, the T/C (dose: 22.0 mg/kg/injection, schedule: Q01DX001 (ip), vehicle: saline) was 137 % of control. In addition, the survivor count is, setting by setting: (dose: 3.6 mg/kg/injection, schedule: Q01DX009 (ip), vehicle: other) 6 of 6; (dose: 6.0 mg/kg/injection, schedule: Q01DX009 (ip), vehicle: other) 6 of 6; (dose: 10.0 mg/kg/injection, schedule: Q01DX009 (ip), vehicle: other) 6 of 6; (dose: 10.0 mg/kg/injection, schedule: Q01DX009 (ip), vehicle: saline) 6 of 6; (dose: 40.0 mg/kg/injection, schedule: Q01DX001 (ip), vehicle: other) 0 of 6; (dose: 80.0 mg/kg/injection, schedule: Q01DX001 (ip), vehicle: other) 0 of 6. Moreover, the survivor count was 3 of 6 (dose: 100.0 mg/kg/injection, schedule: Q01DX001 (ip), vehicle: other); 1 of 6 (dose: 200.0 mg/kg/injection, schedule: Q01DX001 (ip), vehicle: other); 4 of 6 (dose: 400.0 mg/kg/injection, schedule: Q01DX001 (ip), vehicle: other).

On to `Cc1cc(=O)oc2cc(OC(=O)Nc3ccccc3)ccc12`, for which the survivor count by setting is: under setting [2], 0 of 3; under setting [1], 0 of 3 and 0 of 6; under setting [3], 1 of 3 and 4 of 6.

In the case of `COC(=O)NC1CC/C=C\CCC1I` (configuration not stated), the survivor count runs as follows: (dose: 100.0 mg/kg/injection, schedule: Q04DX002 (ip), vehicle: DMSO) 2 of 3; (dose: 400.0 mg/kg/injection, schedule: Q04DX002 (ip), vehicle: DMSO) 0 of 3.

Take `CNc1ccc(C(=O)O)cc1I`: the survivor count by setting is: (dose: 100.0 mg/kg/injection, schedule: Q01DX009 (ip), vehicle: Klucel (hydroxypropylcellulose) (HPC)) 6 of 6; under setting [2], 6 of 6; under setting [1], 6 of 6.

Regarding `CC(Cc1ccccc1)N(C)C` (configuration not stated), the survivor count reads like this: (dose: 100.0 mg/kg/injection, schedule: Q01DX001 (ip), vehicle: saline) 2 of 6; (dose: 100.0 mg/kg/injection, schedule: Q04DX003 (ip), vehicle: saline) 0 of 6; (dose: 200.0 mg/kg/injection, schedule: Q01DX001 (ip), vehicle: saline) 0 of 6; (dose: 200.0 mg/kg/injection, schedule: Q04DX003 (ip), vehicle: saline) 0 of 6; (dose: 400.0 mg/kg/injection, schedule: Q01DX001 (ip), vehicle: saline) 0 of 6; (dose: 400.0 mg/kg/injection, schedule: Q04DX003 (ip), vehicle: saline) 0 of 6.

With `C/C=C1\CN(C)[C@H]2Cc3c([nH]c4ccccc34)[C@@H](c3cc4[nH]c5c(c4cc3OC)CCN3C[C@H]4C[C@H](CC)[C@H]3[C@@]5(C(=O)OC)C4)C[C@H]1C2C(=O)OC` (some centres not stated), the survivor count by setting is: (dose: 90.0 mg/kg/injection, schedule: Q01DX Z (ip), vehicle: other) 0 of 6; (dose: 105.0 mg/kg/injection, schedule: Q01DX Z (ip), vehicle: other) 0 of 6; (dose: 120.0 mg/kg/injection, schedule: Q01DX Z (ip), vehicle: other) 0 of 6; (dose: 135.0 mg/kg/injection, schedule: Q01DX Z (ip), vehicle: other) 0 of 6.

For the compound `N#CC(C#N)=Cc1ccc([N+](=O)[O-])s1`, the survivor count (dose: 50.0 mg/kg/injection, schedule: Q04DX002 (ip), vehicle: Klucel (hydroxypropylcellulose) (HPC)) is reported as 1 of 3; the survivor count (dose: 100.0 mg/kg/injection, schedule: Q04DX002 (ip), vehicle: Klucel (hydroxypropylcellulose) (HPC)) is given as 1 of 3; the survivor count (dose: 200.0 mg/kg/injection, schedule: Q04DX002 (ip), vehicle: Klucel (hydroxypropylcellulose) (HPC)) is given as 0 of 3; the survivor count under setting [3] is listed as 0 of 3.

In the case of `CC(NCCOc1ccccc1)c1ccccc1` (configuration not stated), the survivor count (dose: 400.0 mg/kg/injection, schedule: Q04DX002 (ip), vehicle: saline with Tween-80) is listed as 0 of 3.

For the compound `CN(C)CCc1ccccc1`, the survivor count (dose: 400.0 mg/kg/injection, schedule: Q01DX009 (ip), vehicle: saline with Tween-80) was 0 of 6.

Consider `CC1(C)C(C#N)C(=O)N=C(N)C1C(N)=O` (configuration not stated), for which the survivor count is listed as 6 of 6 (dose: 200.0 mg/kg/injection, schedule: Q04DX003 (ip), vehicle: Klucel (hydroxypropylcellulose) (HPC)) and 5 of 6 (dose: 400.0 mg/kg/injection, schedule: Q04DX003 (ip), vehicle: Klucel (hydroxypropylcellulose) (HPC)).

Consider `CC(=O)OC(CC(O)(C(F)(F)F)C(F)(F)F)C(C)(C)C` (configuration not stated), for which the survivor count was 3 of 6 (dose: 100.0 mg/kg/injection, schedule: Q01DX009 (ip), vehicle: saline); 6 of 6 (dose: 200.0 mg/kg/injection, schedule: Q04DX003 (ip), vehicle: saline with Tween-80); 6 of 6 (dose: 400.0 mg/kg/injection, schedule: Q04DX003 (ip), vehicle: saline with Tween-80).

`CCOC(=O)c1cnn2c(SC)ncnc12`: the survivor count (dose: 200.0 mg/kg/injection, schedule: Q01DX009 (ip), vehicle: saline with Tween-80) is recorded as 4 of 6.

On to `CC(=O)OCC1CCC(NC(=O)N(CCF)N=O)CC1` (configuration not stated), for which the T/C by setting is: (dose: 6.0 mg/kg/injection, schedule: Q01DX001 (ip), vehicle: saline with Tween-80) 125 % of control; (dose: 30.0 mg/kg/injection, schedule: Q01DX001 (ip), vehicle: saline with Tween-80) 144 % of control. Besides, the survivor count (dose: 67.0 mg/kg/injection, schedule: Q01DX001 (ip), vehicle: saline with Tween-80) is 3 of 6; the survivor count (dose: 100.0 mg/kg/injection, schedule: Q01DX001 (ip), vehicle: saline with Tween-80) is on record as 3 of 6; the survivor count (dose: 150.0 mg/kg/injection, schedule: Q01DX001 (ip), vehicle: saline with Tween-80) was 0 of 6.

As to `Cc1ccc2c(n1)Nc1nc(N)[nH]c(=O)c1S2`, the survivor count is recorded as 0 of 6 (dose: 50.0 mg/kg/injection, schedule: Q04DX003 (ip), vehicle: carboxymethylcellulose (CMC)); 0 of 6 (dose: 100.0 mg/kg/injection, schedule: Q04DX003 (ip), vehicle: carboxymethylcellulose (CMC)); 0 of 6 (dose: 200.0 mg/kg/injection, schedule: Q04DX003 (ip), vehicle: carboxymethylcellulose (CMC)); 0 of 6 (dose: 400.0 mg/kg/injection, schedule: Q04DX003 (ip), vehicle: carboxymethylcellulose (CMC)).

As for `Cc1nc2nc[nH]c(=O)c2nc1C`, the survivor count (dose: 500.0 mg/kg/injection, schedule: Q01DX Z (ip), vehicle: methylcellulose (MC)) is given as 6 of 6.

Values taken from PubChem BioAssay AID248 (DTP/NCI, 2004).
